# Source: PubChem BioAssay (EPA / NIEHS)
# Protein sequences, listed by entry. Tags and fused reporters are not part of them. Lines headed by an entry give the natural chain unless they say otherwise; changes in a name come on top.
# UniProt O75469: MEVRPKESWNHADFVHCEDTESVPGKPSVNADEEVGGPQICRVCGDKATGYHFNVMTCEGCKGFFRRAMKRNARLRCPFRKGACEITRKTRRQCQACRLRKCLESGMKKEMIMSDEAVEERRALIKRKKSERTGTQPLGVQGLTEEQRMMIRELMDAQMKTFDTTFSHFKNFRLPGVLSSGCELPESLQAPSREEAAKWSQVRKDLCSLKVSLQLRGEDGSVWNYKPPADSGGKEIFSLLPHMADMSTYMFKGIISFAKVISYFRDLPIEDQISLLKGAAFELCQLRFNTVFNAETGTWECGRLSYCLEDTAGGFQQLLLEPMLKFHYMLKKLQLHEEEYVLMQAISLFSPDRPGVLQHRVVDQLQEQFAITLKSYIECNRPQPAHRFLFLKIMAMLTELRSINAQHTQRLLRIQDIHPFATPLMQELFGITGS
# UniProt Q92753: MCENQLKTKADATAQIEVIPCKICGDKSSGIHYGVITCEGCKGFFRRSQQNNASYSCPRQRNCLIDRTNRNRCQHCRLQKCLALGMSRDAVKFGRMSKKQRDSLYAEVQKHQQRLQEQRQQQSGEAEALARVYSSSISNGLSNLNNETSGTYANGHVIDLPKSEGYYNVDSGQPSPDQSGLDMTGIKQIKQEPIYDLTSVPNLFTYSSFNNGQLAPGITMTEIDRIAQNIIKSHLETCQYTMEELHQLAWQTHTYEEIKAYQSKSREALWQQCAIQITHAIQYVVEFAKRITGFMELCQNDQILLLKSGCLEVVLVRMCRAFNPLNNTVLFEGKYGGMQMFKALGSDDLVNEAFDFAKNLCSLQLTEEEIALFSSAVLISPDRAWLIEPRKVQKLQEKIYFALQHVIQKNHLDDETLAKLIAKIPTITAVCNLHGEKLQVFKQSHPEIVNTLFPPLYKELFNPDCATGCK
# UniProt P28702: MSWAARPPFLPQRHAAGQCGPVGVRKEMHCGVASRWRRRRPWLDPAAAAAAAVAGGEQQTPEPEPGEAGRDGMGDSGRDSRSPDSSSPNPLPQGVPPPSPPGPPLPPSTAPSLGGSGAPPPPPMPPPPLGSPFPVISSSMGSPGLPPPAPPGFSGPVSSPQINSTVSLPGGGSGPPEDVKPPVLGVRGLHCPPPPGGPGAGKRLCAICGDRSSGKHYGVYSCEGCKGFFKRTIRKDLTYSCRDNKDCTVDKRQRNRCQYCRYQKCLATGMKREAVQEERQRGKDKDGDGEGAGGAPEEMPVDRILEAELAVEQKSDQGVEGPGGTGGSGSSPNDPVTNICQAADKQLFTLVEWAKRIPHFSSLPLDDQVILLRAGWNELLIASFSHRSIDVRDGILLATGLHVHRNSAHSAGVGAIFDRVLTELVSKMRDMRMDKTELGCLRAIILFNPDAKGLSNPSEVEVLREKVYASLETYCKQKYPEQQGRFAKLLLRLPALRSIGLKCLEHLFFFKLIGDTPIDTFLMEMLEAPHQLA
# UniProt P10827: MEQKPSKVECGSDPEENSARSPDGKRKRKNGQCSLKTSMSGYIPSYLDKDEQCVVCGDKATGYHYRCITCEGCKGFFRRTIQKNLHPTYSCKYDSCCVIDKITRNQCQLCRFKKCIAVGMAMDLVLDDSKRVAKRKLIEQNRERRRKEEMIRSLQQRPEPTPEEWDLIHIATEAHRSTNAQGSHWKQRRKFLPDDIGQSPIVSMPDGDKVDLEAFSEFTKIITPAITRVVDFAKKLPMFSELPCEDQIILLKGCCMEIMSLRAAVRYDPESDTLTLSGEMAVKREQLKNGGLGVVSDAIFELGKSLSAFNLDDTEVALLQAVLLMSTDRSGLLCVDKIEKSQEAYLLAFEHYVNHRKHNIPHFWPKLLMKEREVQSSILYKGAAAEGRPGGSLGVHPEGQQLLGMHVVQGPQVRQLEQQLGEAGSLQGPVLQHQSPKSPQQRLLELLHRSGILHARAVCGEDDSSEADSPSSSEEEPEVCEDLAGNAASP
# UniProt P11473: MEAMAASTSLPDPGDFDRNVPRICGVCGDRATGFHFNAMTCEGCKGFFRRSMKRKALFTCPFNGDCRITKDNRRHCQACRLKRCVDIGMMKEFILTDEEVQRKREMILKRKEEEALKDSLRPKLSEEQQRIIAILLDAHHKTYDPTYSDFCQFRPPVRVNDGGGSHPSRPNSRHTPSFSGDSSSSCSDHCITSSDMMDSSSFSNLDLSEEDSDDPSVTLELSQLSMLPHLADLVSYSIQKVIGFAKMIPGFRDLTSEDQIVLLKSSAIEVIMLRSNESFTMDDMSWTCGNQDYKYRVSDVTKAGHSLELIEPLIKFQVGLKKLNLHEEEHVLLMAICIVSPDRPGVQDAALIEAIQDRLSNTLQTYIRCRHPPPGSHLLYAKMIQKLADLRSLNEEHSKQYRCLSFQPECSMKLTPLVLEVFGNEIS
# UniProt P51449: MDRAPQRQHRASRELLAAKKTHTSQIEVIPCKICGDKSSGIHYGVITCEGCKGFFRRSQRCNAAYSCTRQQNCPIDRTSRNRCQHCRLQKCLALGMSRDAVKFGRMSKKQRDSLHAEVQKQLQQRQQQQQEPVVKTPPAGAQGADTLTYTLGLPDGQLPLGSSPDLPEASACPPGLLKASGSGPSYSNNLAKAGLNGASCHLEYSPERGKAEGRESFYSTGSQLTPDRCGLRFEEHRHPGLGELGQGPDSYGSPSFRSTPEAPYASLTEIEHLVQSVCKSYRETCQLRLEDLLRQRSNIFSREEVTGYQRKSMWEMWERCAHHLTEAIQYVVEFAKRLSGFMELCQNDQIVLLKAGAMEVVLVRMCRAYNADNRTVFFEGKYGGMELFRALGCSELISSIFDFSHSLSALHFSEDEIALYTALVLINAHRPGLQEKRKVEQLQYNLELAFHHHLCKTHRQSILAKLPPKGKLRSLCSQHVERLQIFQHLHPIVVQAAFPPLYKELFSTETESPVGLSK
# UniProt P19793: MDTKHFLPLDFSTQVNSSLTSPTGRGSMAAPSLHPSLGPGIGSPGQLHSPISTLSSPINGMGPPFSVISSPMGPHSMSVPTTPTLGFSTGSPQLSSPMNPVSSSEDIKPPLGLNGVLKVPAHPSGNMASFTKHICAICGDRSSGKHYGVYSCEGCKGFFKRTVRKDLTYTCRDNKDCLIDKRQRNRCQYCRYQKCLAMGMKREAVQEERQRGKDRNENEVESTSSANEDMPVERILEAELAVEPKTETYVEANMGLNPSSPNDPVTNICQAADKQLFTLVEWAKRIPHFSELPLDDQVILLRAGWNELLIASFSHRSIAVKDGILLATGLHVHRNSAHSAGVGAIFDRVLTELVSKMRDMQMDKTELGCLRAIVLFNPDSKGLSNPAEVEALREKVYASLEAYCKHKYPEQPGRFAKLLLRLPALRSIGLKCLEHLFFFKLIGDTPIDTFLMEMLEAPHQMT
# UniProt P13631, whole entry, looked up: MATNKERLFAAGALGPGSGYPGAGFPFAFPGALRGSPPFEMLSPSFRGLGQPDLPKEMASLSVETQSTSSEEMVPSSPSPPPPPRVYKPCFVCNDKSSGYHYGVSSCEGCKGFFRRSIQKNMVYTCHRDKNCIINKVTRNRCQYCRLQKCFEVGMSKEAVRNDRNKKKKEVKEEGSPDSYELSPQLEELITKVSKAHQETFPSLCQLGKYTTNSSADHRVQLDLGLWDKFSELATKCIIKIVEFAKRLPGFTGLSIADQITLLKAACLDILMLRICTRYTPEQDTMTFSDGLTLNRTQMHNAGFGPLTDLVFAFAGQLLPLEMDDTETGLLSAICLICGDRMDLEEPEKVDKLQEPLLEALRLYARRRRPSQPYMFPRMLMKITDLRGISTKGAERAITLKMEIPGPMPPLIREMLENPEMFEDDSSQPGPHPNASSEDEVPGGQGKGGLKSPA
# UniProt P08684, whole entry, looked up: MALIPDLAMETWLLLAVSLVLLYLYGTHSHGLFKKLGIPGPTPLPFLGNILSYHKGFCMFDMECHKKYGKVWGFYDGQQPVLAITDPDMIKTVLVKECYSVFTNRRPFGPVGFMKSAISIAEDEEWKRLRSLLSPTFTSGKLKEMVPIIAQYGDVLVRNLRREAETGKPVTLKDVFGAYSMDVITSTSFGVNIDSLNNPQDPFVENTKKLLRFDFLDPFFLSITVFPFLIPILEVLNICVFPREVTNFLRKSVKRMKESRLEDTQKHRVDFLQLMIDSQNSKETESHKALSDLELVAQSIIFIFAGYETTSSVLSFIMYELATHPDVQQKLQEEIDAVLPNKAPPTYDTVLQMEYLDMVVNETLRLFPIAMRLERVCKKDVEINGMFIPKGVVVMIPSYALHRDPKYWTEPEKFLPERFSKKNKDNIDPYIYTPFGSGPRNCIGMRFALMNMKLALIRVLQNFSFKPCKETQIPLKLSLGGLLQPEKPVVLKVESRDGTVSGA
# UniProt P11511: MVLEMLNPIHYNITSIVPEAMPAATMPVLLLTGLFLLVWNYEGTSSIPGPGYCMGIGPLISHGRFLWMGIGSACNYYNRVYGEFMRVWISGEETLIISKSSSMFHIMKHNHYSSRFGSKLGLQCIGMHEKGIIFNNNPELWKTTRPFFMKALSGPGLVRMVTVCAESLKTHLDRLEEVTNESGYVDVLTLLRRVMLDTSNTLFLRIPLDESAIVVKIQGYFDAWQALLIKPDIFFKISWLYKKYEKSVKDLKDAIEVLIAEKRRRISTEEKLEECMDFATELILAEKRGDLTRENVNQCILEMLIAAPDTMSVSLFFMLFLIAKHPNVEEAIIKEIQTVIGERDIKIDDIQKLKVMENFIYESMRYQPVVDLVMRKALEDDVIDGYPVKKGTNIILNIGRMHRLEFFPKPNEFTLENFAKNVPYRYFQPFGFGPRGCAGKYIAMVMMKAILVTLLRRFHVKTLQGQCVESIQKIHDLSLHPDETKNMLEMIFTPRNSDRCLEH
# UniProt P04798: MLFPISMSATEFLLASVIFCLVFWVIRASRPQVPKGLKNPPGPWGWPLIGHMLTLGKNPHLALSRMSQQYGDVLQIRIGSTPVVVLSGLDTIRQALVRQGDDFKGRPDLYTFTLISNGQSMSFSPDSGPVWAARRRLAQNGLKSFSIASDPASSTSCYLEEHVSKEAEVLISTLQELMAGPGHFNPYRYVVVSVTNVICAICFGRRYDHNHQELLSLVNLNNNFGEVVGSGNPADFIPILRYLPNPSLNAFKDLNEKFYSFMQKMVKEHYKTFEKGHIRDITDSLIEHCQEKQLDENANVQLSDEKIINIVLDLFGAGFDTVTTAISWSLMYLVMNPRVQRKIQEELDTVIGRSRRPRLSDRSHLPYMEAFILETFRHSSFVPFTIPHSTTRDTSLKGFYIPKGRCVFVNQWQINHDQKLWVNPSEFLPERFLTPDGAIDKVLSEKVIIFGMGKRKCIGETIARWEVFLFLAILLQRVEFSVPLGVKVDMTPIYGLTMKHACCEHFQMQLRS
# UniProt P20813: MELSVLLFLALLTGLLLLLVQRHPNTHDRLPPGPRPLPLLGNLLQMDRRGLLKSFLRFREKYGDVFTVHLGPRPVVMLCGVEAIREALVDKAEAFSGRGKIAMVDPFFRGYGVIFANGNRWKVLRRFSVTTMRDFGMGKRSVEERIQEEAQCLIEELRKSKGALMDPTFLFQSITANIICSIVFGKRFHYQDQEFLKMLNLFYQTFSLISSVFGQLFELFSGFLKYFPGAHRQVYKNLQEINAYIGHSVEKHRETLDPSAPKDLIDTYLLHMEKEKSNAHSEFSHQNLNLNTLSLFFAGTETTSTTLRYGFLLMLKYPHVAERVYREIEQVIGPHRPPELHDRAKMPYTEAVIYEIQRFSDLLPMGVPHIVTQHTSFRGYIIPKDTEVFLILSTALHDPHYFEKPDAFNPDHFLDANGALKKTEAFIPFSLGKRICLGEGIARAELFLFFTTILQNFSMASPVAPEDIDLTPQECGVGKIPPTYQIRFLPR
# UniProt P33261, whole entry, looked up: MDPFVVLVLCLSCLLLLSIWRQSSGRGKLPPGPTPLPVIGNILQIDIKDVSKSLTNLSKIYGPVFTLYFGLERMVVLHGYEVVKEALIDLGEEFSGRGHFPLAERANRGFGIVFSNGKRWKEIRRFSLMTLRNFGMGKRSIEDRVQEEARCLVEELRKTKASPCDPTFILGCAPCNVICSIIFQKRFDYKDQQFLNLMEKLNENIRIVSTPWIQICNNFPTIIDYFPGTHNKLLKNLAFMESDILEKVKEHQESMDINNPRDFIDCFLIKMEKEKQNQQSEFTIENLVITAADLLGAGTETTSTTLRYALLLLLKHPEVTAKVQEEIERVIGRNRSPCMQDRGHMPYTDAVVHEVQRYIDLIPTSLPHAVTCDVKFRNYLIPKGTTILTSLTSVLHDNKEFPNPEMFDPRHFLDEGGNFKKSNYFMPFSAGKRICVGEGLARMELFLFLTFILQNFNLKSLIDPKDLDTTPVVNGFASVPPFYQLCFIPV
# Values joined by “and” are separate entries in the source; they are usually repeats but may differ in a detail not shown here. Equal entries are not always repeated. The inconclusive results got no clear call from the source; some entries with a clear call stand among them for comparison. For some assays here: Potencies of inconclusive entries are doubtful fits and often do not repeat. Active and inactive are the calls of the source. Rule for the calls: active = hit-call score of the fitted dose curve at least 0.9, where 1 is the maximum; inconclusive = response in the unintended direction; inactive = score below 0.9.
# How the values were obtained:
# [1] = target: Nuclear receptor subfamily 1 group I member 2 (Homo sapiens) (UniProt O75469); assay: ATG_PXR_TRANS: Attagene TRANS-FACTORIAL HepG2 Assay for human Pregnane X Receptor (PXR) (AID 2283008)
# In short: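 Fluorescence intensity of FAM-labelled, HpaI-digested reporter amplicons, separated by capillary electrophoresis, quantifies induction. HepG2 cells with PXR-Gal4 trans-reporter system were exposed 24 h; DMSO defines baseline.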
# [2] = target: human RAR-related Orphan Receptor beta (RORb), RORB (gene 6096) (UniProt Q92753); assay: ATG_RORb_TRANS: Attagene TRANS-FACTORIAL HepG2 Assay for human RAR-related Orphan Receptor beta (RORb) (AID 2283010);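 for AC50: potency for increased reporter mRNA meaning activation of RORb-Gal4 chimera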
# In short: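 HepG2 cells transiently transfected with GAL4-UAS reporter units expressing chimeric NR-Gal4 protein; reporter mRNA measured 24 h after dosing by RT-PCR, 6-FAM labelling and capillary electrophoresis. Gain-of-signal fitted relative to DMSO baseline.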
# [3] = target: human Retinoid X Receptor beta (RXRb), RXRB (gene 6257) (UniProt P28702); assay: ATG_RXRb_TRANS: Attagene TRANS-FACTORIAL HepG2 Assay for human Retinoid X Receptor beta (RXRb) (AID 2283013)
# In short: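 HepG2 cells were transiently transfected with multiplexed GAL4-UAS reporters and a chimeric RXRb-Gal4 construct, then exposed for 24 h. Reporter mRNA was quantified by RT-PCR, FAM labeling, HpaI digestion and capillary electrophoresis; gain of signal was scored against DMSO.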
# [4] = target: human Thyroid Receptor alpha (THRa1), THRA (gene 7067) (UniProt P10827); assay: ATG_THRa1_TRANS: Attagene TRANS-FACTORIAL HepG2 Assay for human Thyroid Receptor alpha (THRa1) (AID 2283014)
# In short: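 Reporter transcript induction, read by capillary electrophoresis of 6-FAM-labelled RT-PCR products, reflects activity of a transfected THRa1-Gal4 fusion in HepG2 liver cells. Cells were dosed for 24 h; activity was fitted in the positive direction against DMSO.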
# [5] = target: human Vitamin D Receptor (VDR), VDR (gene 7421) (UniProt P11473); assay: ATG_VDR_TRANS: Attagene TRANS-FACTORIAL HepG2 Assay for human Vitamin D Receptor (VDR) (AID 2283022)
# In short: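 Steps: transfect HepG2 with GAL4-UAS-driven reporter constructs; dose compounds 24 h; isolate RNA, reverse-transcribe, PCR-amplify with 6-FAM-labelled primer extension and HpaI digestion; quantify fragments by capillary electrophoresis relative to DMSO.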
# [6] = target: human RAR-related Orphan Receptor gamma (RORg), RORC (gene 6097) (UniProt P51449); assay: ATG_RORg_TRANS: Attagene TRANS-FACTORIAL HepG2 Assay for human RAR-related Orphan Receptor gamma (RORg) (AID 2283011);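 for AC50: potency for induction of reporter transcripts above DMSO so activators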
# In short: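 First, HepG2 liver cells were transfected with GAL4-UAS-driven reporter constructs and the RORg-Gal4 fusion. Next, they were treated with chemical for 24 h. Finally, reporter mRNA was quantified by RT-PCR and capillary electrophoresis, with upward activity fitted against DMSO.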
# [7] = target: Retinoic acid receptor RXR-alpha (Homo sapiens) (UniProt P19793); assay: ATG_RXRa_TRANS: Attagene TRANS-FACTORIAL HepG2 Assay for human Retinoid X Receptor alpha (RXRa) (AID 2283012)
# In short: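 HepG2 cells transiently transfected with GAL4-UAS reporter units and chimeric RXRa-Gal4 protein, treated 24 h. Reporter mRNA measured by RT-PCR, fluorescent labelling, HpaI digestion and capillary electrophoresis. Induction fitted against DMSO.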
# [8] = target: human Retinoic Acid Receptor gamma (RARg), RARG (gene 5916) (UniProt P13631); assay: ATG_RARg_TRANS: Attagene TRANS-FACTORIAL HepG2 Assay for human Retinoic Acid Receptor gamma (RARg) (AID 2283009);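 note: AC50 is for reporter induction above DMSO meaning RARg activation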
# In short: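 HepG2 transiently transfected with GAL4-UAS reporter units and chimeric NR-Gal4 constructs; 24 h compound exposure. Reporter mRNA quantified by RT-PCR, FAM labeling, HpaI digestion and capillary electrophoresis; gain-of-signal versus DMSO.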
# [9] = target: Cytochrome P450 3A4 (Homo sapiens) (UniProt P08684); assay: NVS_ADME_hCYP3A4: NovaScreen (NVS) CYP450-related Enzyme Activity (ADME) Assay for human CYP3A4 (AID 2283110)
# In short: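 Cell-free assay using insect-cell-expressed human CYP3A4 with a fluorogenic substrate; fluorescence intensity was read 0.33 hour after dosing. Loss of signal relative to acetonitrile vehicle indicated inhibition. Primary single-concentration screen at 10 uM, in duplicate, then concentration series.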
# [10] = target: human CYP19A1, CYP19A1 (gene 1588) (UniProt P11511); assay: NVS_ADME_hCYP19A1: NovaScreen (NVS) CYP450-related Enzyme Activity (ADME) Assay for human CYP19A1 (AID 2283098);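 for AC50: potency for inhibitors seen as loss of fluorescent enzyme signal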
# In short: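 Cell-free enzyme assay with recombinant protein and a specific fluorogenic substrate, read by fluorescence intensity 0.5 h after dosing. Primary screen ran in duplicate at 10 uM; actives were retested in concentration series. Loss of signal versus acetonitrile baseline.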
# [11] = target: human CYP1A1, CYP1A1 (gene 1543) (UniProt P04798); assay: NVS_ADME_hCYP1A1: NovaScreen (NVS) CYP450-related Enzyme Activity (ADME) Assay for human CYP1A1 (AID 2283100)
# In short: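 Recombinant hCYP1A1 + fluorogenic substrate, cell-free; 1 h; fluorescence read. Single-point 10 uM (duplicate) → concentration series, max 20 uM. Acetonitrile negative control.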
# [12] = target: human CYP2B6, CYP2B6 (gene 1555) (UniProt P20813); assay: NVS_ADME_hCYP2B6: NovaScreen (NVS) CYP450-related Enzyme Activity (ADME) Assay for human CYP2B6 (AID 2283101)
# In short: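 Recombinant protein, specific fluorescent substrate, read at 1 h post-dosing. Primary: single 10 uM, duplicate; follow-up: concentration series. Activity = signal loss vs acetonitrile baseline, with positive and negative controls on every plate.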
# [13] = target: Cytochrome P450 2C19 (Homo sapiens) (UniProt P33261); assay: NVS_ADME_hCYP2C19: NovaScreen (NVS) CYP450-related Enzyme Activity (ADME) Assay for human CYP2C19 (AID 2283113);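 note: potency for inhibition seen as loss of fluorescent signal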
# In short: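 Fluorescence intensity was measured 1 hour after chemicals were added to insect-cell-derived recombinant CYP2C19 with fluorogenic substrate. Decreased signal versus acetonitrile control was taken as reduced enzyme activity; initial testing used 10 uM in duplicate.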
structure (smiles),measurement,setting,value
Cl/C=C\C[N+]12CN3CN(CN(C3)C1)C2,AC50,[1],inconclusive: 100 µM
same,outcome,[2],inactive
same,AC50,[3],inconclusive: 100 µM
same,AC50,[4],inconclusive: 0.00979 µM
same,AC50,[5],inconclusive: 24.1 µM
COP(=O)(OC)SCn1c(=O)oc2cc(Cl)cnc21,outcome,[1],inactive
same,outcome,[2],inactive
same,outcome,[6],inactive
COC(=O)NC(=S)Nc1ccccc1NC(=S)NC(=O)OC,outcome,[1],inactive
same,outcome,[2],inactive
same,AC50,[6],inconclusive: 50 µM
same,outcome,[7],inactive
same,AC50,[3],inconclusive: 50 µM
same,outcome,[5],inactive
CCOP(=S)(OCC)SCSCC,AC50,[1],active: 9.51 µM
same,AC50,[2],inconclusive: 1.48 µM
same,AC50,[3],active: 48.2 µM
same,AC50,[4],inconclusive: 100 µM
C=CC(=O)OCCCCOC(=O)C=C,outcome,[1],inactive
same,AC50,[2],inconclusive: 179 µM
COc1ccc(C=O)cc1OC,AC50,[1],inconclusive: 40.3 µM
same,AC50,[8],inconclusive: 27.2 µM
same,outcome,[2],inactive
same,outcome,[7],inactive
same,AC50,[3],inconclusive: 100 µM
Clc1ccc(C2(Cn3cncn3)CC(Br)CO2)c(Cl)c1 (stereo unspecified),AC50,[1],active: 0.762 µM
same,AC50,[6],inconclusive: 16.7 µM
same,AC50,[7],inconclusive: 60.6 µM
same,AC50,[3],inconclusive: 5.36 µM
same,AC50,[9],active: 2 µM
COP(=S)(OC)SCn1nnc2ccccc2c1=O,AC50,[10],inconclusive: 0.0509 µM
Oc1ccc(Cl)cc1Cc1ccccc1,outcome,[11],inactive
C=CCC1=C(C)C(OC(=O)C2C(C=C(C)C)C2(C)C)CC1=O (stereo unspecified),outcome,[12],inactive
same,outcome,[9],inactive
Oc1cccc2cccnc12,AC50,[9],inconclusive: 4.83 µM
Nc1c(Cl)c(Cl)nc(C(=O)O)c1Cl,AC50,[13],inconclusive: 10 µM
CCCCC(O)(Cn1cncn1)c1ccc(Cl)cc1Cl (stereo unspecified),AC50,[2],inconclusive: 50 µM
same,AC50,[3],inconclusive: 11.7 µM
same,AC50,[5],inconclusive: 0.0129 µM
same,AC50,[10],inconclusive: 0.059 µM
CCC[CH2][Sn]([CH2]CCC)([CH2]CCC)[O]C(=O)c1ccccc1,AC50,[7],active: 0.00575 µM
COP(=S)(OC)Oc1ccc([N+](=O)[O-])cc1,AC50,[6],inconclusive: 0.00476 µM
same,AC50,[7],inconclusive: 7.1 µM
same,outcome,[3],inactive
same,AC50,[4],inconclusive: 7.1 µM
CCOP(=S)(OCC)SCSC(C)(C)C,AC50,[2],inconclusive: 10.4 µM and inconclusive: 5.5 µM
same,AC50,[3],active: 25.7 µM and active: 24.6 µM
same,outcome,[4],inactive
Nc1ccc(Cl)cc1,AC50,[2],inconclusive: 102 µM
same,outcome,[6],inactive
same,outcome,[4],inactive

# Rewritten tab-delimited: part of the list above
structure (smiles)	measurement	setting	value
CCOP(=S)(OCC)SCSCC	AC50	[4]	inconclusive: 100 µM
C=CC(=O)OCCCCOC(=O)C=C	outcome	[1]	inactive
same	AC50	[2]	inconclusive: 179 µM
COc1ccc(C=O)cc1OC	AC50	[1]	inconclusive: 40.3 µM
same	AC50	[8]	inconclusive: 27.2 µM
same	outcome	[2]	inactive
same	outcome	[7]	inactive
same	AC50	[3]	inconclusive: 100 µM
Clc1ccc(C2(Cn3cncn3)CC(Br)CO2)c(Cl)c1 (stereo unspecified)	AC50	[1]	active: 0.762 µM
same	AC50	[6]	inconclusive: 16.7 µM
same	AC50	[7]	inconclusive: 60.6 µM
same	AC50	[3]	inconclusive: 5.36 µM
same	AC50	[9]	active: 2 µM
COP(=S)(OC)SCn1nnc2ccccc2c1=O	AC50	[10]	inconclusive: 0.0509 µM
Oc1ccc(Cl)cc1Cc1ccccc1	outcome	[11]	inactive
